From patent US8481740B2, “Imidazo[1,2 a] pyridine-6-carboxamide derivatives, their use for the treatment of colon cancer and their method of manufacture” (University of the Witwatersrand, Johannesburg, priority 2009, dated 2013)
Some results were stated once for a whole list of compounds, not compound by compound.

Tests used:
[1] = test system: caspase 8 in HT-29 cells; test: Caspase 8 colorimetric assay, HT-29 lysates; type: cell-based, human; conditions: time of exposure
Experimental: As it is well known that caspases play a vital role in the execution of apoptosis, the level of caspase 3 and caspase 8 enzymatic activity in the cell lysates were determined using a caspase 3 and caspase 8 colorimetric assay kit (FIGS. 3A and B). Maximal caspase 8 expression in HT-29 cells was observed within 2 hours of exposure to all the CDK compounds. […] Maximal caspase 3 expression in the HT-29 cells was observed after 8 hours of exposure to 7 and 13, and 4 hours of exposure to 12. Maximal caspase 8 expression in the HT-29 cells was observed within 2 hours of exposure to 14, 4 and 6, and within 4 hours after exposure to 3. Maximal caspase 3 expression in the HT-29 cells was observed after 2 hours of exposure to 4 and 6, and after 4 hours of exposure to 14 and 3.
The activation of caspases initiates apoptosis in mammalian cells. Caspase 3 and Caspase 8 were detected using the CPP32 and FLICE colorimetric Assay kits, respectively. The following method (obtained from Biovision research products) was performed.
The treated HT-29 and Caco-2 cells were harvested and resuspended in 50 μl of chilled cell lysis buffer and incubated on ice for 10 minutes. The cells were centrifuged for 1 minute (10000 g) and the supernatant (cytosolic extract) was transferred to a fresh tube and placed on ice. The protein concentration was assayed using the Biorad assay method. 100-200 μg protein to 50 μl cell lysis buffer was diluted for each assay. 50 μl of 2× Reaction buffer (containing 10 mM DTT) was added to each sample. 5 μl of 4 mM IETD-pNA substrate for Caspase 8 and 5 μl of 4 mM DEVD-pNA substrate for Caspase 3 was added to each sample and incubated at 37° C. for 1-2 hours. The samples were read at 405 nm in the microtiter plate reader. Time dependent studies were performed for protease activity by attaining results 2, 4, 6, 12, and 24 hours after treatment with the compounds.

[2] = test system: caspase 8 in Caco-2 cells; test: Caspase 8 colorimetric assay, Caco-2 lysates; type: cell-based, human; conditions: time of exposure

Structure (SMILES) | time at which high levels of caspase 8 were observed [1] [h] | time of maximal (peak) caspase 8 expression [1] [h] | time at which high levels of caspase 8 were observed [2] [h]
COc1ccc(-c2nc3ccc(Br)cn3c2Nc2c(C)cccc2C)cc1OC [Compound 6] | ≤ 2 | ≤ 2 | ≤ 2
COc1ccc(-c2nc3ccc(Br)cn3c2Nc2c(C)cccc2C)c(OC)c1 [Compound 12] |  | ≤ 4 | ≤ 4
COc1ccc(-c2nc3ccc(-c4ccccc4)cn3c2Nc2c(C)cccc2C)cc1OC [Compound 14] | ≤ 2 | ≤ 2 | ≤ 2
